Measurements published in paper doi:10.1101/2021.02.12.430971.
No constants are given. Whether binding was seen depends on the method and setting. In cells and extracts the contact can be indirect. Some results given as binding are weak or reduced against the parent protein; the word gives no strength.

Chains of the proteins cited; added tags and fusions are not shown. Residues count along the entry.
UniProt P08173, whole entry: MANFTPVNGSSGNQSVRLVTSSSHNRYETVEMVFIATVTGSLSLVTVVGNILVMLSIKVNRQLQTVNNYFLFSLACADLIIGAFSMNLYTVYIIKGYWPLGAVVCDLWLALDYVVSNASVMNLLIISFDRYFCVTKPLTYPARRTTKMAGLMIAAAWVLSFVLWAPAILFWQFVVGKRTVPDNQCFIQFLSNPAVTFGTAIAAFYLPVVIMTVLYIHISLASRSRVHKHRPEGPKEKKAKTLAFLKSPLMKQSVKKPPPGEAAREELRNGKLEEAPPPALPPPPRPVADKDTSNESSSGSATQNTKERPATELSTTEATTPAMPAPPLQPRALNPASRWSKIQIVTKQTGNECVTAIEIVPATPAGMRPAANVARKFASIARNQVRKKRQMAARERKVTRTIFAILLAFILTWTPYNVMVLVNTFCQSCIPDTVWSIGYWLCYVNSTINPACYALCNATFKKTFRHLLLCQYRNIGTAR
UniProt P08912, whole entry: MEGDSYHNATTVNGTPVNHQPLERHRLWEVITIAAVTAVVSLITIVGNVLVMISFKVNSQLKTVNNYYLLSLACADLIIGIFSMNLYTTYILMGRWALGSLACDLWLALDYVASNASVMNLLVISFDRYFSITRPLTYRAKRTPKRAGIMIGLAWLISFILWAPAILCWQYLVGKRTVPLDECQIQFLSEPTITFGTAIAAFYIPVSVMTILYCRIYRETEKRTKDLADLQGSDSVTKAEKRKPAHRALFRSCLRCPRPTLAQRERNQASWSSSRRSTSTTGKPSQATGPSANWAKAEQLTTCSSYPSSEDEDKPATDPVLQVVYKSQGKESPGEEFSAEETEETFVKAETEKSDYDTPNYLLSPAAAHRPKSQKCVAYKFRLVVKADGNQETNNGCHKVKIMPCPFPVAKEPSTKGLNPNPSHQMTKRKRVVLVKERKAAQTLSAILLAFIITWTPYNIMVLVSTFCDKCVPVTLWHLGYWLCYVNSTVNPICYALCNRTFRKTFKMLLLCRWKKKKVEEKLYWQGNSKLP
UniProt P20309, whole entry: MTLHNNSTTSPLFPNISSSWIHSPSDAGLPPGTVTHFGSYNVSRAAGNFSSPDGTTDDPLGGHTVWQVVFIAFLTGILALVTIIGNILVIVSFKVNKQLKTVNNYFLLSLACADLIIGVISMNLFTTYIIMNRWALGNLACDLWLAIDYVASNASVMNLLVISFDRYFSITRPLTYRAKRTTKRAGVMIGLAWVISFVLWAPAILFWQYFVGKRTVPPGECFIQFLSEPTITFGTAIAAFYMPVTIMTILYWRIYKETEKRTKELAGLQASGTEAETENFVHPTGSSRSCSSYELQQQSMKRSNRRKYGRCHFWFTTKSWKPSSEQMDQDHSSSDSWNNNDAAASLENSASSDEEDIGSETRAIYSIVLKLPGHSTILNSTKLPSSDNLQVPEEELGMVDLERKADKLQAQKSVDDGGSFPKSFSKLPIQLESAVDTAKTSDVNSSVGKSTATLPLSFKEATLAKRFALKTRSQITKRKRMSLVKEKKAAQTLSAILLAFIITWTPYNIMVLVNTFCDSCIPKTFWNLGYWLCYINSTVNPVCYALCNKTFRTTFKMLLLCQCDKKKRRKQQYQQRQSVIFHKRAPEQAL
UniProt P21730, whole entry: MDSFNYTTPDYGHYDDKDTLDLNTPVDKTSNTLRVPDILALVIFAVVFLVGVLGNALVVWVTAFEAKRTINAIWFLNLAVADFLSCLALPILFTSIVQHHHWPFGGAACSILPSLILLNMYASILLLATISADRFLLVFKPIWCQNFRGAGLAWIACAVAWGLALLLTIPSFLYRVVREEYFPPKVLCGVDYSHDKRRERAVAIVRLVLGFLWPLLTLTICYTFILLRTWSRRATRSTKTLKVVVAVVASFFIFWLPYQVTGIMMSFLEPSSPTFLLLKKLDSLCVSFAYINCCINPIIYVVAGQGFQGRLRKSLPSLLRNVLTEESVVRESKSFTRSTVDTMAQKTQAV
UniProt Q03431, 27-593: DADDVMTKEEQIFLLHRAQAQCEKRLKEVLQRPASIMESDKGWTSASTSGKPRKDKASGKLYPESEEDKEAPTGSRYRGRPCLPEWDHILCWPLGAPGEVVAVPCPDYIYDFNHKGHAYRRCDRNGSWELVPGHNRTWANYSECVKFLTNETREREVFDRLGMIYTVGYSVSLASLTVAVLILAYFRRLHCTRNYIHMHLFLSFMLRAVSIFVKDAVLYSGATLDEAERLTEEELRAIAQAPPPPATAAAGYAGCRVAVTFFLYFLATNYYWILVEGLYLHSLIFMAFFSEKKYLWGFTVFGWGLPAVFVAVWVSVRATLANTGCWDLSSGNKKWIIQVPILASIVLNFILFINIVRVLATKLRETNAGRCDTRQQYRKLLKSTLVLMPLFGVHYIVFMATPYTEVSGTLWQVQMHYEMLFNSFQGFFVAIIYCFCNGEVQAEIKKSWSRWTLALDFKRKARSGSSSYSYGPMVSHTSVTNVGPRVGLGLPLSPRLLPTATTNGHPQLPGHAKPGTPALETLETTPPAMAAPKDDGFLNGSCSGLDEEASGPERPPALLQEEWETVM
UniProt P17870, whole entry: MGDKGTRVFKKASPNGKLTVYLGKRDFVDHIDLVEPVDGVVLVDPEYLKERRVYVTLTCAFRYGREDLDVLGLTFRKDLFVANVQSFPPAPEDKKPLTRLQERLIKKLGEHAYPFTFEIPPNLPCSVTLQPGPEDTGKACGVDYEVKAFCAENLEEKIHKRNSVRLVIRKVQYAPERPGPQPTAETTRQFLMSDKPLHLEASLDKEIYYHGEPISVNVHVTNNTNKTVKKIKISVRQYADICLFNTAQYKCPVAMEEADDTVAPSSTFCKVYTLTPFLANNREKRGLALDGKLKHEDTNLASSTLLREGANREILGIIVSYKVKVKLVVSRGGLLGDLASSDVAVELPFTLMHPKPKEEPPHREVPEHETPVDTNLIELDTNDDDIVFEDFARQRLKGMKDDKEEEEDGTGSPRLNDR
UniProt P32120, whole entry: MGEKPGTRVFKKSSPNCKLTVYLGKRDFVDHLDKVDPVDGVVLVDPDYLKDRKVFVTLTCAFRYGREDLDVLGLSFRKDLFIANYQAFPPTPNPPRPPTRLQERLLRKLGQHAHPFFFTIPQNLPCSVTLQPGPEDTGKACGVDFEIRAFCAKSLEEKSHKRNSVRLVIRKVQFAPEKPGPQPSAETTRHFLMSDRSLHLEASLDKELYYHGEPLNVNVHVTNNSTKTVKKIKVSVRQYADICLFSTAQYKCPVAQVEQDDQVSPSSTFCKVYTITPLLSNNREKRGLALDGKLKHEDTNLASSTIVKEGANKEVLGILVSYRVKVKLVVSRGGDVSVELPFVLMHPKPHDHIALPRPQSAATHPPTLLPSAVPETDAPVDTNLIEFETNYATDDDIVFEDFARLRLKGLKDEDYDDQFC

Assays:
Assay in all cases: FRET or BRET
[1] = biological target: muscarinic 4 acetylcholine receptor-NanoLuc (human) (UniProt P08173)
[2] = biological target: Angiotensin 1 receptor-NanoLuc (human) (UniProt P30556)
[3] = biological target: muscarinic M5 acetylcholine receptor-NanoLuc (human) (UniProt P08912)
[4] = biological target: muscarinic 3 acetylcholine receptor-NanoLuc (human) (UniProt P20309)
[5] = biological target: complement 5a receptor 1-NanoLuc (human) (UniProt P21730)
[6] = biological target: parathyroid hormone 1 receptor-Halo-Tag (human) (UniProt Q03431)

| binding [1] | binding [2] | binding [3] | binding [4] | binding [5] | binding [6] | Substance |
| --- | --- | --- | --- | --- | --- | --- |
| binds | binds | binds | binds | binds | – | Halo-Tag-β-arrestin1 (from UniProt P17870 1-418) |
| binds | binds | binds | binds | binds | – | Halo-Tag-β-arrestin2 (from UniProt P32120 1-420) |
| – | – | – | – | – | binds | β-arrestin1-NanoLuc (from UniProt P17870 1-418) |
| – | – | – | – | – | binds | β-arrestin2-NanoLuc (from UniProt P32120 1-420) |
